According to PubChem BioAssay AID1347076 (National Center for Advancing Translational Sciences (NCATS), 2019):
The campaign covered roughly 400,000 compounds. About 13,000 (3.2%) were called active. The inconclusive results got no clear call from the source; some entries with a clear call stand among them for comparison. The call rests on the fitted dose curve; in most records, active means well fitted cell-killing curve with a large enough effect; inconclusive means small, poorly fitted or top-dose-only effect, or effect the other way; inactive means flat fitted curve, though single readings scatter. Potencies of inconclusive entries are doubtful fits and often do not repeat.
On the % scale 0 is the no-effect control and ±100 the full control effect; potency means the concentration at half of the fitted maximal effect.

Assay: qHTS assay for MDR1-selective chemotherapeutics: Primary screen using the drug-selected MDR subline cells KB-V1; further: nearly all actives have a fitted effect of over 60% in size
Conditions: KB-V1 MDR cells viability, CellTiter-Glo, 72 h; activity change, negative = cytotoxicity: at 46.1 µM (top of the series)
Outline: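 Drug-selected KB-V1 cells, grown in DMEM lacking phenol red with 10% FBS, receive compound titrations; after three days at 37 degrees C, surviving cell ATP is quantified by CellTiter-Glo luminescence and responses normalized and curve-fitted.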
In the case of `O=C(c1cccc(Cl)c1)N1CCN(c2ccc3c(c2)C2CC3CCN2C(=O)OCc2ccccc2)CC1` (stereo unspecified), the Potency is reported as active: 16.4 µM. With `CCCCN(C(C)=O)c1c(CC)nc2ccc(C(=O)NCCCN(C)C)cn12` the Potency was “inactive”. With `O=C(c1ccc(CNS(=O)(=O)c2ccc(Br)cc2)cc1)N1CCCCCC1` the Potency was inconclusive: 14.6 µM [cytotoxic, partial curve, poor fit]. For `CCOP(=O)(OCC)C(C)(C)NC(=O)Nc1ccc(Cl)c(Cl)c1`, the Potency was inconclusive: 23.1 µM [cytotoxic, partial curve, poor fit]. With `CCN(c1ccccc1)S(=O)(=O)c1cc([N+](=O)[O-])ccc1N` the Potency was inconclusive: 29.1 µM [cytotoxic, partial curve, poor fit]. With `Cc1noc(C)c1COc1ccc(C(=O)NCc2cccs2)cc1` the Potency was inconclusive: 20.6 µM [cytotoxic, single point]. In the case of `CCCCC(=O)Nc1nc(C)c(-c2csc(Nc3ccccc3OC)n2)s1`, the Potency is reported as “inactive”. With `COc1cc(OC)cc(C(=O)N2CCN(c3ccccc3F)CC2)c1` the Potency was inconclusive: 18.4 µM [cytotoxic, single point]. With `Cc1ccccc1-n1c(C)cc(/C=C(\C#N)C(=O)NCC2CCCO2)c1C` (stereo unspecified) the Potency was “inactive”. In the case of `Oc1cc(Nc2ccccc2)cc2cccnc12`, the Potency is reported as inconclusive: 16.4 µM [cytotoxic, partial curve, poor fit]. With `COCCCNC(=O)c1cccc2c(-c3cccc(C(N)=O)c3)coc12` the Potency was inconclusive: 25.9 µM [cytotoxic, partial curve, poor fit]. With `Cc1nc(-c2cccc(NC(=O)c3ccc(-n4nccc4C)cc3)c2)cs1` the Potency was inconclusive: 20.6 µM [cytotoxic, partial curve, poor fit]. For `COc1ccc(C(=O)Nc2cccc(C)c2)cc1S(=O)(=O)N1CCOCC1`, the Potency was “inactive”. With `NC(=O)c1cc2ccccc2o/c1=N\NC(=O)c1ccccc1O` the Potency was “inactive”. For `O=C(COc1ccccc1)N[C@@H]1c2ccccc2CC[C@H]1OCc1ccccc1`, the Potency was “inactive”. With `CNS(=O)(=O)c1cc(NC(=O)c2cccc3cccnc23)ccc1C` the Potency was inconclusive: 13 µM [cytotoxic, partial curve]. In the case of `Cc1ccc(CN2CCC2(C)C(=O)NC2CCc3ccccc32)cc1` (stereo unspecified), the Potency is reported as “inactive”. With `O=C(NCC1CCCCC1)NCC1CCCCC1` the Potency was inconclusive: 29.1 µM [rising, single point]. In the case of `COc1cccc(CN(C)C(=O)c2ccc(S(=O)(=O)Nc3cccc(C)c3C)cc2)c1OC`, the Potency is reported as inconclusive: 7.31 µM [cytotoxic, partial curve]. In the case of `COc1ccc(OC)c(N/C=C/C(=O)c2ccccc2)c1`, the Potency is reported as “inactive”. With `CCOC(=O)c1c(-c2cccs2)csc1NC(=O)CSc1ncn[nH]1` the Potency was active: 20.6 µM. With `O=C(O)CN1CCNCCN(CC(=O)O)CCNCC1` the Potency was inconclusive: 20.6 µM [cytotoxic, partial curve]. In the case of `CCC(CCc1ccccn1)C(=O)c1ccccc1` (stereo unspecified), the Potency is reported as inconclusive: 13 µM [cytotoxic, partial curve]. In the case of `CN1C(CC(=O)Nc2ccc(Cl)cc2Cl)c2ccccc2CC1(C)C` (stereo unspecified), the Potency is reported as inconclusive: 29.1 µM [cytotoxic, single point]. In the case of `C=CCN(C(=O)c1csnn1)C(C(=O)NC1CCCC1)c1ccc(Cl)cc1` (stereo unspecified), the Potency is reported as inconclusive: 2.91 µM [cytotoxic, full curve, poor fit]. In the case of `O=C(O)c1ccccc1-c1ccccc1C(=O)NCc1cccnc1`, the Potency is reported as inconclusive: 29.1 µM [rising, single point]. With `C=CCn1c(Cc2c[nH]c3ccccc23)n[nH]c1=S` the Potency was “inactive”. For `COC(=O)c1ccc2cc(C)cc(C)c2n1`, the Potency was “inactive”. For `COc1ccc(OC)c(CN2C(=O)c3ccccc3C2c2nnnn2-c2ccc3c(c2)OCCO3)c1` (stereo unspecified), the Potency was “inactive”. For `CCN(C(=O)CSc1nc2ccccc2n1CC(=O)N1CCCC(C)C1)c1ccccc1` (stereo unspecified), the Potency was “inactive”. In the case of `CN1CC(=O)N(CC(=O)NCc2ccc(F)cc2)c2ccccc2C1=O`, the Potency is reported as inconclusive: 18.4 µM [rising, partial curve, poor fit]. For `Cc1cc(C)c2c(C)[nH]nc2n1`, the Potency was inconclusive: 0.231 µM [rising, full curve]. For `CCOC(=O)C1CCCN(S(=O)(=O)c2ccc(Br)c(OC)c2)C1` (stereo unspecified), the Potency was “inactive”. In the case of `CCC(C)c1ccc(NC(=S)NCc2ccccn2)cc1` (stereo unspecified), the Potency is reported as inconclusive: 25.9 µM [cytotoxic, single point]. For `CCN(CC)S(=O)(=O)c1cc(C(=O)N2CCc3ccccc32)ccc1Cl`, the Potency was inconclusive: 16.4 µM [cytotoxic, single point]. With `Cc1sc2ncnc(N=Nc3c(O)[nH]c4ccccc34)c2c1C` the Potency was inconclusive: 9.2 µM [cytotoxic, partial curve]. With `CCN(CC(=O)Nc1ccc(S(N)(=O)=O)cc1)S(=O)(=O)c1cc(C)ccc1OC` the Potency was inconclusive: 29.1 µM [rising, single point]. In the case of `COc1cc2c(cc1OC)C(c1c(-c3c(Cl)cccc3Cl)noc1C)=NCC2`, the Potency is reported as inconclusive: 20.6 µM [cytotoxic, single point]. With `O=C(OCC(=O)N1CCN(c2ccccc2)CC1)c1ccccc1OC(F)F` the Potency was “inactive”. With `CC(C)(C)CC(=O)Nc1cc(S(=O)(=O)N2CCCCCC2)ccc1Cl` the Potency was active: 18.4 µM. For `Cc1ccc(NC(=O)Cn2cnc3sc(C(=O)NCc4ccco4)c(C)c3c2=O)cc1Cl`, the Potency was inconclusive: 11.6 µM [cytotoxic, partial curve, poor fit]. With `CCCCOc1ccc(C(=O)NCC(=O)NC2CCCCC2)cc1` the activity change, negative = cytotoxicity was inconclusive: 7.62%. For `O=C(CCCc1ccccc1)NCCS(=O)(=O)N1CCN(c2ccccc2)CC1`, the Potency was “inactive”. With `Clc1ccc(-c2nnn3c2nc(NCc2ccc4c(c2)OCO4)c2ccccc23)cc1` the Potency was inconclusive: 16.4 µM [rising, partial curve, poor fit]. For `CC1CN(CCOCCOc2ccccc2-c2ccccc2)CC(C)O1` (stereo unspecified), the Potency was inconclusive: 2.31 µM [cytotoxic, partial curve]. In the case of `O=C(CSc1ccccn1)Nc1ccc2c(c1)C(=O)c1ccccc1C2=O`, the Potency is reported as inconclusive: 2.31 µM [cytotoxic, full curve].
